From publication PMC9805129
Results are given in words; binding and its absence hold for the method and conditions named. Binding seen in cells or lysates may run through a third protein. Some entries that bind do so weakly or less than the wild type.

Sequences of proteins named here, by UniProt entry; tags and fusion partners are left off. A change or cut given only in a name is not applied to a line headed by its entry. Residues count along the entry.
UniProt Q4LDE5, residues 18-3571: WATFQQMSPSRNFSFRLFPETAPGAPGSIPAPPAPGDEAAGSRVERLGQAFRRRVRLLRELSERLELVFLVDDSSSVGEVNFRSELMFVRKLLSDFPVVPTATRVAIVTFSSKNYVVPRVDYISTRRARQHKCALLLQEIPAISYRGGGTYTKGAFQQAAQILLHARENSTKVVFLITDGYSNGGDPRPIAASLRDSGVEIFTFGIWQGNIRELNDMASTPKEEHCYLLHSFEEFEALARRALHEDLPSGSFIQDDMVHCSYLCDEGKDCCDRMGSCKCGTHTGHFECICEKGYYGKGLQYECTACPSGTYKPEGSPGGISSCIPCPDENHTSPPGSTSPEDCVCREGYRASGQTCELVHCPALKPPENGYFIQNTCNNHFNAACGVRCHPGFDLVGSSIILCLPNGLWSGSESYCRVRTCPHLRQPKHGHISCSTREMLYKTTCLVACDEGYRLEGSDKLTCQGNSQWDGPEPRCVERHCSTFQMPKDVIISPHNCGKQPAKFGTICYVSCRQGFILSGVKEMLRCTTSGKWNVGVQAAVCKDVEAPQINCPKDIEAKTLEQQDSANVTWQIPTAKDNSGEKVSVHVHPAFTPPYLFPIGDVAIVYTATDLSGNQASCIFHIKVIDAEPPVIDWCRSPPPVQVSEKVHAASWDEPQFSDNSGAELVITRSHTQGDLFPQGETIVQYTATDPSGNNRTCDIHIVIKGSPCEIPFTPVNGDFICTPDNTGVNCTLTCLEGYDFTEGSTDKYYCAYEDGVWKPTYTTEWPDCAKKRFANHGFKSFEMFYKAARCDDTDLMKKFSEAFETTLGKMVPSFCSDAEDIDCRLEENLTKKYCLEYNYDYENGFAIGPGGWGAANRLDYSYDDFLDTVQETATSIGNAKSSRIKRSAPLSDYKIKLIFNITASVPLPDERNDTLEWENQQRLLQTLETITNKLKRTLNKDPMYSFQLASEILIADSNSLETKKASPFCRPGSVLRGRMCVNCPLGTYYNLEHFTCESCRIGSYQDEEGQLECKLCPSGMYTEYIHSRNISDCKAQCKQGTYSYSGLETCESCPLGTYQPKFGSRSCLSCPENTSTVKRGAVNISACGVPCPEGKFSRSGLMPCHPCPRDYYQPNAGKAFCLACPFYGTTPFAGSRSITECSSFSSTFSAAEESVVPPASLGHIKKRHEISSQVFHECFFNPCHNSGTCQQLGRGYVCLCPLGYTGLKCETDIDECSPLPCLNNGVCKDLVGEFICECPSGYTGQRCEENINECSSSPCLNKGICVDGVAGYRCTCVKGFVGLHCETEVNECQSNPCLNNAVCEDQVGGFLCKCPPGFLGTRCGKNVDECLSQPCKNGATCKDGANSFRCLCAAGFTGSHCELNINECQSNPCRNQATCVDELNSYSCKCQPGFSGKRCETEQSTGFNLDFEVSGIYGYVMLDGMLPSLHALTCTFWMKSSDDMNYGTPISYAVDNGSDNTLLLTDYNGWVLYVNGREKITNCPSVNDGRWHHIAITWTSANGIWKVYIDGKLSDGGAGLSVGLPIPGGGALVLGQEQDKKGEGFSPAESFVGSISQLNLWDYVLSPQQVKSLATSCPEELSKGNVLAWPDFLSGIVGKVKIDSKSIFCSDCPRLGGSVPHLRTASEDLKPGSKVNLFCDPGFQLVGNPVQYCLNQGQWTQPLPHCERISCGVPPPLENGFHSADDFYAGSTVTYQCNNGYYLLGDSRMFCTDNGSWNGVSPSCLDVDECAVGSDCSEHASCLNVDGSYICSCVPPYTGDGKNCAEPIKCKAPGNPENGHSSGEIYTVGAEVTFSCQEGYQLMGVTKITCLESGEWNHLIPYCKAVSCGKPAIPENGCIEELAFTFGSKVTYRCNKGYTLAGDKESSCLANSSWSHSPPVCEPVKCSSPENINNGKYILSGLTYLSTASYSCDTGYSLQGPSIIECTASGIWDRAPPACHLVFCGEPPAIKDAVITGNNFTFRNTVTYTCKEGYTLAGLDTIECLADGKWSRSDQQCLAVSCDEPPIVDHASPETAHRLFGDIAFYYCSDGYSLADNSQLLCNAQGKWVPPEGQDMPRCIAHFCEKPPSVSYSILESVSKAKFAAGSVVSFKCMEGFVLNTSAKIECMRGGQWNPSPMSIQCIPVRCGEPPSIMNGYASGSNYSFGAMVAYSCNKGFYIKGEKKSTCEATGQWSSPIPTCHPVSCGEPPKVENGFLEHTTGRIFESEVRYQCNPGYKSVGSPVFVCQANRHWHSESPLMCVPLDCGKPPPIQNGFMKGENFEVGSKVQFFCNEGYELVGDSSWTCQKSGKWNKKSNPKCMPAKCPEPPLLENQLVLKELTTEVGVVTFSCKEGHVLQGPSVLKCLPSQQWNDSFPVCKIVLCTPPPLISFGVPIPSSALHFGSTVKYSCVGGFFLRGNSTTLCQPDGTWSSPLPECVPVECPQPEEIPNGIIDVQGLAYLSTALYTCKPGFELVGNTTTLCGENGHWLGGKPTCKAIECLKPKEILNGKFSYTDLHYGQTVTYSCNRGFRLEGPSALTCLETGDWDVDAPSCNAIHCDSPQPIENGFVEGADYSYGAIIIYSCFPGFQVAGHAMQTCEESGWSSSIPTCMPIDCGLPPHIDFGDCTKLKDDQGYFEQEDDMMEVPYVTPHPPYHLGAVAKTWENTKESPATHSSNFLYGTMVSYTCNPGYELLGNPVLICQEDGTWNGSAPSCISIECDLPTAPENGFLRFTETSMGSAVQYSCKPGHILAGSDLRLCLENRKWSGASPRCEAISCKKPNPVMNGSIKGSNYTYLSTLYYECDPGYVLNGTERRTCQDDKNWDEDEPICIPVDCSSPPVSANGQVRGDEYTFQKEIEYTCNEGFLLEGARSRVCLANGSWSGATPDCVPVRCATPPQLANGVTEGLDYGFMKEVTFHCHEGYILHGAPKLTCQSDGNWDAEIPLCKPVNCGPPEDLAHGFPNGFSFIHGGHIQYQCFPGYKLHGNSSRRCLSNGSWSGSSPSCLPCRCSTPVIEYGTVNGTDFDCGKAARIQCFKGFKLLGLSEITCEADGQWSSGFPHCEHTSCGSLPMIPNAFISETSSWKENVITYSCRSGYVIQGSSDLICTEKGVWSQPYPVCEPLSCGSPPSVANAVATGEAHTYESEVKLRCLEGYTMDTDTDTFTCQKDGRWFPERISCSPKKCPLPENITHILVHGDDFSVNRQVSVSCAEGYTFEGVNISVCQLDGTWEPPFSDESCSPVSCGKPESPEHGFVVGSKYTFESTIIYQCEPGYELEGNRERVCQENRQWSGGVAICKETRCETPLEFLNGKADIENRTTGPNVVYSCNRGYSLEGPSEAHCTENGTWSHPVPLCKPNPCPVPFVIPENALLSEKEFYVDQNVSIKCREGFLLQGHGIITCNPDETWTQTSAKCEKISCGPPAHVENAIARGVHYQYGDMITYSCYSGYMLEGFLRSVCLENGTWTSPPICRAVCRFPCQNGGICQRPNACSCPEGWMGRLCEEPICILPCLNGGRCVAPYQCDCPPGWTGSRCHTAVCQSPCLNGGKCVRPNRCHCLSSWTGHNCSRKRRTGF
UniProt Q13797: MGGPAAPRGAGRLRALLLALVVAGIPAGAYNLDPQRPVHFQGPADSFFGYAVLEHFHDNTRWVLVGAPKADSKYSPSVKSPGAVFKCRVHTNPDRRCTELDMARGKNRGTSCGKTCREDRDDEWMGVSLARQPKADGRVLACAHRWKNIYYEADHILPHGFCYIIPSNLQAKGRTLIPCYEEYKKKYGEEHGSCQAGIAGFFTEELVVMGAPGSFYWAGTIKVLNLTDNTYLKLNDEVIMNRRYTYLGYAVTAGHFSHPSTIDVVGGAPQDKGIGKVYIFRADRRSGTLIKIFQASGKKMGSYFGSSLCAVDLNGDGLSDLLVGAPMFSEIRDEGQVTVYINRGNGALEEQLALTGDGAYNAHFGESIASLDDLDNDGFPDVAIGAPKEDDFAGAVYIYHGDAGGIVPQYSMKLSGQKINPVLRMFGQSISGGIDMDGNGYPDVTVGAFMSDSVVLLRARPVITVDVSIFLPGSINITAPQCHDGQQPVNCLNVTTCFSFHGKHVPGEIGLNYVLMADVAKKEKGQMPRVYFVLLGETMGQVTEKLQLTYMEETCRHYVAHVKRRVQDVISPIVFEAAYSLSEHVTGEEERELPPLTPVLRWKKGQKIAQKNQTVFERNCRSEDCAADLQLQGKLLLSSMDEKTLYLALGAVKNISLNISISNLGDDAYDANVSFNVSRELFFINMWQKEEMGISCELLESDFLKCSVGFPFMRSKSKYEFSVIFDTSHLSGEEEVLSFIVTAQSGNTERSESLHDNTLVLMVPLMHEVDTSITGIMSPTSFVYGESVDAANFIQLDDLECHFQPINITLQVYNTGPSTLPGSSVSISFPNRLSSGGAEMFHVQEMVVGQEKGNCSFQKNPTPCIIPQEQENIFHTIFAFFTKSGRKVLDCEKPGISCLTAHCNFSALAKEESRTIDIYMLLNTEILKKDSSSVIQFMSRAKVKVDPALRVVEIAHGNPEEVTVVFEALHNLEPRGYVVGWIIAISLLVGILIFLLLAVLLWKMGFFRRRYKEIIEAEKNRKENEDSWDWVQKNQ
UniProt P13612: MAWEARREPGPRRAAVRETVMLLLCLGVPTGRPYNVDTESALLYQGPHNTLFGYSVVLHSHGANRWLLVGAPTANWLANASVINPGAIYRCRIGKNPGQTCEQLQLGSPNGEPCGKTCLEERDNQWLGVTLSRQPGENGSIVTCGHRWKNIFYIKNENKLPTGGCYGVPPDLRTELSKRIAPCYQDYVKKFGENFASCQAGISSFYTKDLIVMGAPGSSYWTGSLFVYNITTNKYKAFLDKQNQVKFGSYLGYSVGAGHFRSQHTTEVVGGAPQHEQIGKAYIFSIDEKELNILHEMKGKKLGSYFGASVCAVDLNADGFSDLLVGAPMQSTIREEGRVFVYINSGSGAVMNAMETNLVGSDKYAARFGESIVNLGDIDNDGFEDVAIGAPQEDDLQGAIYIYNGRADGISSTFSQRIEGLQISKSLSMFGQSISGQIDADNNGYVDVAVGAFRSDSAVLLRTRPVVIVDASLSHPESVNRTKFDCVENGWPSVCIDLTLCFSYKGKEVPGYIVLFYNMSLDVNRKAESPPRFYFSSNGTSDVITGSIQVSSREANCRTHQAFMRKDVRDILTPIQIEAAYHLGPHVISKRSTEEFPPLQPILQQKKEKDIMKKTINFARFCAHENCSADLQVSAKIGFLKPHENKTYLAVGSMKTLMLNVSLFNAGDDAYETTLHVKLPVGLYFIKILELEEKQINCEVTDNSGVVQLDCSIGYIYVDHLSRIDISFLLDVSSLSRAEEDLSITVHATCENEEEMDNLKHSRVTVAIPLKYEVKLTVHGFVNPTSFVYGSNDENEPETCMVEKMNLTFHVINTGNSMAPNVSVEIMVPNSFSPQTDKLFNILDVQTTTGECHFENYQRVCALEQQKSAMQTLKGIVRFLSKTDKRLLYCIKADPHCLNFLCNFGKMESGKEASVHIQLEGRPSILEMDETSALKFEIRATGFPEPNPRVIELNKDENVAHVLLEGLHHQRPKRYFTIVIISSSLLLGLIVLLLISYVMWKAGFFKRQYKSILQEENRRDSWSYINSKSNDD

Target: Sushi, von Willebrand factor type A, EGF and pentraxin domain-containing protein 1 (SVEP1), FLAG-tagged (UniProt Q4LDE5)
Test: co-IP; anti-FLAG agarose beads with cleared lysates of transfected HEK293A cells (50 mM Tris-HCl, 150 mM NaCl, 1 mM EDTA, 1% Triton X-100), 90 min at 4°C; blots with anti-integrin α4 or anti-GFP

Substance	binding
integrin α9β1, α9 subunit GFP-tagged (from UniProt Q13797 30-1035; P05556 21-798) (receptor)	binds
integrin α4β1 (from UniProt P13612 34-1032; P05556 21-798) (receptor)	binds
